We go through 44 compounds from the supplement of paper PMC9226226.

Several values for one entry are separate records, joined by “and”; a condition that tells them apart may be missing. Identical values can stand only once. The list shows a part of the results. Several reference drugs read as weak here; read low effects with care.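 Prematurely aging human mesenchymal stem cells without the Werner syndrome gene were monitored by automated live-cell imaging over three biological repeats. The top twenty drugs for increasing growth versus vehicle moved forward; no fixed cutoff was specified.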 Numbered stars: 1 amine (or outer) side, 2 acyl side, 3 side chain; on linkers, the order of the positions; unused ones are H or OH. Bridge positions count the residues as written; N and C are the ends. Square brackets hold non-standard residues; d marks the D form. Peptide text beside a SMILES is read from it. * marks the point of attachment. hTyr(3S-OH,4S-OH,3'-OSO3H) = N[C@H](C(=O)O)[C@H](O)[C@@H](O)c1ccc(O)c(OS(=O)(=O)O)c1; Orn(4R-OH,5R-OH) = O=C([C@H](C[C@@H](O)[C@@H](O)N[*:3])N[*:1])[*:2]; Pro(3S-OH,4S-Me) = C[C@H]1CN[C@H](C(=O)O)[C@H]1O; X1 = CCCCCOc1ccc(-c2cc(-c3ccc(C(=O)*)cc3)no2)cc1; Gln(3R-OH) = NC(=O)C[C@@H](O)[C@H](N)C(=O)O; Hyp = O=C(O)[C@@H]1C[C@@H](O)CN1

This test concerns Werner syndrome hMSCs (WRN-/-). The test is described as follows: relative cell density (fold change vs vehicle control); higher = more proliferation (geroprotective). Conditions: concentration (umol/L): 1, 6 days.

As for `CC(=O)O[C@]1(C(C)=O)CC[C@H]2[C@@H]3C=C(Cl)C4=CC(=O)[C@@H]5C[C@@H]5[C@]4(C)[C@H]3CC[C@@]21C`, the relative cell density (vehicle: DMSO) is 1.26.

In the case of `CC(C)c1cc(-c2n[nH]c(=O)n2-c2ccc3c(ccn3C)c2)c(O)cc1O`, where the note is “vehicle: DMSO”, the relative cell density is 0.0994.

With `CC(=O)O[C@]1(C(C)=O)CC[C@H]2[C@@H]3CCC4=CC(=O)CCC4=C3[C@@H](c3ccc(N(C)C)cc3)C[C@@]21C`, the relative cell density (vehicle: DMSO) came out at 1.12.

As for `CCCCCOc1ccc(-c2cc(-c3ccc(C(=O)N[C@H]4C[C@@H](O)[C@@H](O)NC(=O)[C@@H]5[C@@H](O)[C@@H](C)CN5C(=O)[C@H]([C@H](O)CC(N)=O)NC(=O)[C@H]([C@H](O)[C@@H](O)c5ccc(O)c(OS(=O)(=O)O)c5)NC(=O)[C@@H]5C[C@@H](O)CN5C(=O)[C@H]([C@@H](C)O)NC4=O)cc3)no2)cc1` (X1-[Orn(4R-OH,5R-OH)]T[Hyp][hTyr(3S-OH,4S-OH,3'-OSO3H)][Gln(3R-OH)][Pro(3S-OH,4S-Me)]; lactam 1-C), under “vehicle: Water”, the relative cell density was found to be 1.14.

On to `COc1cc2nc(N(C)CCCNC(=O)C3CCCO3)nc(N)c2cc1OC` (centres undefined), for which the relative cell density (vehicle: DMSO) stood at 0.864.

In the case of `CCCCc1nc2cc(/C=C/C(=O)NO)ccc2n1CCN(CC)CC`, the relative cell density (vehicle: DMSO) is 0.625.

`N=C(N)Nc1ccc(C(=O)Oc2ccc3cc(C(=N)N)ccc3c2)cc1` had a relative cell density (vehicle: DMSO) of 1.11.

Take `NC(=O)c1nc(F)cnc1O`: the relative cell density (vehicle: DMSO) was 0.927.

For the compound `CC#CC(=O)N1CCC[C@H]1c1nc(-c2ccc(C(=O)Nc3ccccn3)cc2)c2c(N)nccn12`, the relative cell density (vehicle: DMSO) was 0.877.

As to `N[C@@H](Cc1c[nH]c2ccc(O)cc12)C(=O)O`, the relative cell density (vehicle: DMSO) was determined as 1.11.

Turning to `CN1C[C@@H]2C[C@H]1CN2c1cc2c(cc1F)c(=O)c(C(=O)O)cn2C1CC1`, the relative cell density (vehicle: Water) stood at 1.04.

`C[C@]12CC[C@H](O)CC1=CC[C@@H]1[C@@H]2CC[C@]2(C)C(n3cnc4ccccc43)=CC[C@@H]12` yielded a relative cell density (vehicle: DMSO) of 0.844.

For the setting “vehicle: Water”, `CNC(=O)CN(CCN(CCN(CC(=O)[O-])CC(=O)NC)CC(=O)[O-])CC(=O)[O-].O.[Gd+3]` gave a relative cell density of 1.05.

With `CC1=C(/C=C/C(C)=C/C=C/C(C)=C/C(=O)O)C(C)(C)CCC1`, where the note is “vehicle: DMSO”, the relative cell density came out at 0.897.

With `O=C(Nc1nc2cccc(-c3ccc(CN4CCS(=O)(=O)CC4)cc3)n2n1)C1CC1`, the relative cell density (vehicle: DMSO) is 0.999.

In turn, `N=C(N)NS(=O)(=O)c1ccc(N)cc1` came in with a relative cell density (vehicle: DMSO) of 1.38.

On to `CC(=O)Oc1ccccc1C(=O)O`, for which the relative cell density (vehicle: DMSO) stood at 1.51.

Turning to `CNS(=O)(=O)CCc1ccc2[nH]cc(C3CCN(C)CC3)c2c1`, under “vehicle: DMSO”, the relative cell density turned out to be 1.04.

For `Cc1ncc(CO)c(CO)c1O`, where the note is “vehicle: DMSO”, the relative cell density is 1.17 and 1.06.

In turn, `OC(c1ccccc1)(c1ccccc1)C12CC[N+](CCOCc3ccccc3)(CC1)CC2` showed a relative cell density (vehicle: DMSO) of 0.913.

With `CC1(C)[C@H](C(=O)O)N2C(=O)C[C@H]2S1(=O)=O`, the relative cell density (vehicle: DMSO) is 1.16 and 1.06.

Where the note is “vehicle: Water”, `N[C@@H](CCC(=O)N[C@@H](CS)C(=O)NCC(=O)O)C(=O)O` showed a relative cell density of 1.33.

On to `CC1=C(C(=O)O)N2C(=O)[C@@H](NC(=O)[C@H](N)C3=CCC=CC3)[C@H]2SC1`, for which the relative cell density (vehicle: Water) came to 0.854.

`C#Cc1cccc(Nc2ncnc3cc4c(cc23)OCCOCCOCCO4)c1` yielded a relative cell density (vehicle: DMSO) of 1.67.

With `C=CC(=O)Nc1cc(Nc2nccc(-c3cn(C)c4ccccc34)n2)c(OC)cc1N(C)CCN(C)C`, the relative cell density (vehicle: DMSO) is 0.86.

Consider `CCCN(CCC)S(=O)(=O)c1ccc(C(=O)O)cc1`, for which, where the note is “vehicle: DMSO”, the relative cell density amounted to 1.38.

`CCN(CC)C(=O)c1cccc(C)c1` yielded a relative cell density (vehicle: DMSO) of 1.11.

Where the note is “vehicle: DMSO”, `CCN(CC)C(=O)c1cccnc1` displayed a relative cell density of 1.02.

`C[C@]12CC[C@@H]3c4ccc(O)cc4CC[C@H]3[C@@H]1CC[C@@H]2O` came in with a relative cell density (vehicle: DMSO) of 0.963.

`CCCC(CCC)C(N)=O` yielded a relative cell density (vehicle: DMSO) of 0.915.

`CN(C)CC/C=C1/c2ccccc2Sc2ccc(Cl)cc21`: the relative cell density (vehicle: DMSO) amounted to 1.35.

Consider `O=C(O)CSc1nnc(Br)n1-c1ccc(C2CC2)c2ccccc12`, for which the relative cell density (vehicle: DMSO) is 1.49.

Take `CC(=O)[C@H]1CC[C@H]2[C@@H]3CCC4=CC(=O)CC[C@]4(C)[C@H]3CC[C@]12C`: the relative cell density (vehicle: DMSO) turned out to be 1.09.

Compound `Cn1cc(CNCC2CCN(c3ncc(C(=O)NO)cn3)CC2)c2ccccc21` had a relative cell density (vehicle: DMSO) of 0.133.

As to `CN(C)CCOC(c1ccccc1)c1ccccc1`, the relative cell density (vehicle: DMSO) worked out at 1.24.

With `COc1cc(O)c(C(=O)c2ccccc2)cc1S(=O)(=O)O`, where the note is “vehicle: DMSO”, the relative cell density was found to be 1.39.

On to `Nc1cccc2c1C(=O)N(C1CCC(=O)NC1=O)C2=O` (centres undefined), for which, for the setting “vehicle: DMSO”, the relative cell density is 1.04.

Take `N=C(N)NC(=O)Cc1c(Cl)cccc1Cl`: the relative cell density (vehicle: DMSO) is 1.22.

Consider `CCCCCCCCCC(=O)N[C@@H](Cc1c[nH]c2ccccc12)C(=O)N[C@@H](CC(N)=O)C(=O)N[C@@H](CC(=O)O)C(=O)N[C@@H]1C(=O)NCC(=O)N[C@@H](CCCN)C(=O)N[C@@H](CC(=O)O)C(=O)N[C@H](C)C(=O)N[C@@H](CC(=O)O)C(=O)NCC(=O)N[C@H](CO)C(=O)N[C@@H]([C@H](C)CC(=O)O)C(=O)N[C@@H](CC(=O)c2ccccc2N)C(=O)O[C@@H]1C`, for which, where the note is “vehicle: DMSO”, the relative cell density was 0.927.

On to `CC1(C)CCC(C)(C)c2cc(NC(=O)c3ccc(C(=O)O)cc3)ccc21`, for which, where the note is “vehicle: DMSO”, the relative cell density was determined as 1.07.

`N[C@@H](Cc1cc(I)c(Oc2cc(I)c(O)c(I)c2)c(I)c1)C(=O)O`: under “vehicle: DMSO”, the relative cell density was 1.19 and 1.13.

As for `COc1cc(C(=O)O)ccc1NC(=O)[C@@H]1N[C@@H](CC(C)(C)C)[C@](C#N)(c2ccc(Cl)cc2F)[C@H]1c1cccc(Cl)c1F`, where the note is “vehicle: DMSO”, the relative cell density amounted to 1.14.

Where the note is “vehicle: DMSO”, `Nc1ncnc2c1ncn2[C@@H]1O[C@H](CO)[C@@H](O)[C@H]1O` showed a relative cell density of 1.15.

Turning to `Clc1ccc(CSC(Cn2ccnc2)c2ccc(Cl)cc2Cl)cc1` (centres undefined), the relative cell density (vehicle: DMSO) was determined as 0.905.
